From paper PMC4196966 come the findings set out here.

The chains behind the UniProt entries cited, without tags or fusion partners. Residues count along the entry.
UniProt P21802, residues 22-821: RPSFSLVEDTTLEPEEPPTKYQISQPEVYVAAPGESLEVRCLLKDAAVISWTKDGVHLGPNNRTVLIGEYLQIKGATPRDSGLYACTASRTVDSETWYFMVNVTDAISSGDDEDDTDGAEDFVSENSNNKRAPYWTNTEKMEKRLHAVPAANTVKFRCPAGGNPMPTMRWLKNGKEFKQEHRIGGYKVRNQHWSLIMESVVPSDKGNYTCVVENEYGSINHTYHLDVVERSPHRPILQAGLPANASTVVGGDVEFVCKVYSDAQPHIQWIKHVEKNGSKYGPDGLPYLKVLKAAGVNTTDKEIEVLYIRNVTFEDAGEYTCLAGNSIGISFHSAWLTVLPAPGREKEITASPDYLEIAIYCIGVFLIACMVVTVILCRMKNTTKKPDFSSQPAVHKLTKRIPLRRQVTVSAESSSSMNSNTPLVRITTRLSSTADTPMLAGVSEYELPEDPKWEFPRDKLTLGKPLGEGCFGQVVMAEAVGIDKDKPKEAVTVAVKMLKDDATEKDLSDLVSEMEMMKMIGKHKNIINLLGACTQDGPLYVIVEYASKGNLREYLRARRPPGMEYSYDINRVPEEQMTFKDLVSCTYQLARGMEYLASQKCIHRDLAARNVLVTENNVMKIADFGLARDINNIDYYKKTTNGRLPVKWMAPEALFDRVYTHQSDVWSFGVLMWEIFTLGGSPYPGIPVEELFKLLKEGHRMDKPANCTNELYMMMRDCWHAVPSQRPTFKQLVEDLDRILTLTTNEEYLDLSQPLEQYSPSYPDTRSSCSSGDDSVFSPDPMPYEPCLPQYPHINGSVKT

Results are given in words; binding and its absence hold for the method and conditions named. Binding seen in cells or lysates may run through a third protein. Some results given as binding are weak or reduced against the parent protein; the word gives no strength.

Experiment [1] deals with Fibroblast growth factor receptor 2 (FGFR2) (human (endogenous in U-251 MG)) (UniProt P21802). Briefly: cross-linking; U-251 MPI-shRNA knockdown clones, serum starved, stimulated with FGF-1 (50 ng/mL, 30 min); intact cells cross-linked with 4 mM BS3, lysed, FGFR2 immunoprecipitated (MAB6841), 7.5% SDS-PAGE and blot.
Experiment [2] shares this target. Put plainly: condition: only in MPI-shRNA knockdown cells, without FGF-1 stimulation; cross-linking; U-251 MPI-shRNA knockdown clones, serum starved, not stimulated; intact cells cross-linked with 4 mM BS3, lysed, FGFR2 immunoprecipitated (MAB6841), 7.5% SDS-PAGE and blot.
Experiment [3] has the same target. Put plainly: cross-linking; U-251 control cells, serum starved, with or without FGF-1 (50 ng/mL, 30 min); intact cells cross-linked with 4 mM BS3 (not cell permeable), lysed, FGFR2 immunoprecipitated (MAB6841), 7.5% SDS-PAGE and blot; monomer and dimer bands.

Regarding “Fibroblast growth factor receptor 2 (FGFR2) (from UniProt P21802 22-821)”, the values for the binding entry in experiment [1], in experiment [2] and in experiment [3] were “binds weakly”, “no binding” and “binds”, respectively.
